The record followed here is PMC4858745.

Amino acid sequences for entries named in this document (tags omitted). Residues count along the entry.
UniProt Q9QUK6, residues 26-835: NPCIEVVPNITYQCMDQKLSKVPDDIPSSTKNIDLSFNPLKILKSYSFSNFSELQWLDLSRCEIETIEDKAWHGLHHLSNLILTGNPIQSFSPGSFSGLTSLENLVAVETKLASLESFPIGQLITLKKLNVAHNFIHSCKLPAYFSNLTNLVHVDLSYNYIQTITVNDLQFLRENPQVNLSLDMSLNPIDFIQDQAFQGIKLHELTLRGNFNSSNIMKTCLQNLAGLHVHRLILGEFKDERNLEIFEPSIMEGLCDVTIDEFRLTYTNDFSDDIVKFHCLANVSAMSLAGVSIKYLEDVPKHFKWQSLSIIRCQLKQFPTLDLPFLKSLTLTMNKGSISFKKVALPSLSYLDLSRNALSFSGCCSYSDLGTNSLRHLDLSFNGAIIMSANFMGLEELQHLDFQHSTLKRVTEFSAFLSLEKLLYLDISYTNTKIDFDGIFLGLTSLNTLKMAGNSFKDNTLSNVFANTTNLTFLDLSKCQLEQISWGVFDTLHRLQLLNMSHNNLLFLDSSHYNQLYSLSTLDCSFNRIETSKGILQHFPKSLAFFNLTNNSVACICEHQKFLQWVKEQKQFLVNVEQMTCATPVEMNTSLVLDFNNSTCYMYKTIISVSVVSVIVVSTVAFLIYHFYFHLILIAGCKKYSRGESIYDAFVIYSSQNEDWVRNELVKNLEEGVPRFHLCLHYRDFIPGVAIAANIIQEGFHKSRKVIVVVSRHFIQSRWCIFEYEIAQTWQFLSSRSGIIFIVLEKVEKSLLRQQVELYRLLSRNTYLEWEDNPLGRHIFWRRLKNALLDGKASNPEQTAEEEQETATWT

One experiment concerns the target Flag-tagged TLR4 (UniProt Q9QUK6). Description: co-IP; Ba/F3 transfectants, with or without Fcα/μR WT, TM-mt or ΔCyt, stimulated with 1 μg/ml LPS for 10 or 30 min; lysed in 50 mM Tris-HCl pH 7.6, 150 mM NaCl, 25 mM CaCl2, 0.5% Triton X-100; IP anti-Flag, blot anti-GFP.
The target of experiment [1] is T1, HA-tagged WT Fcα/μR (CD351) (UniProt Q2TB54).
T1 sequence: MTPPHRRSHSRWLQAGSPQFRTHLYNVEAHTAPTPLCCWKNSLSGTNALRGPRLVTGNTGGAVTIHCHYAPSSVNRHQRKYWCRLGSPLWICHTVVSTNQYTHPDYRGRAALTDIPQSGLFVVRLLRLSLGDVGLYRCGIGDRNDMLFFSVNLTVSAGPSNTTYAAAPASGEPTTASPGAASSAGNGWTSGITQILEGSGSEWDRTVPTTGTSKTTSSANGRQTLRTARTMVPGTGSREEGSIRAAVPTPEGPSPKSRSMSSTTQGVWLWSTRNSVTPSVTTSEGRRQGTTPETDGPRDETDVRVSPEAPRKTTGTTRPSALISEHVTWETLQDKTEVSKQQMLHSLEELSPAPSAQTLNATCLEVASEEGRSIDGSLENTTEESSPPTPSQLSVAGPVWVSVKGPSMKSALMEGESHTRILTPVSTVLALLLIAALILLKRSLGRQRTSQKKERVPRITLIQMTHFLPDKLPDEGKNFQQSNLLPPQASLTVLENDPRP
Description: co-IP; Ba/F3 transfectants lysed in 1% digitonin, 0.12% Triton X-100, 150 mM NaCl, 20 mM triethanolamine; IP anti-HA and blot anti-Flag by the legend (the methods say IP anti-Flag, blot anti-HA); with or without LPS stimulation.

The target of experiment [2] is T2, Fcα/μR (CD351), endogenous in primary MZ B cells (mouse (endogenous in MZ B cells)) (UniProt Q2TB54).
T2 sequence: T1 sequence
Nature of the experiment: proximity ligation; MZ B cells from WT and Fcα/μR-KO mice fixed with acetone; anti-Fcα/μR TX57 and rabbit anti-TLR4 (ab13556); Duolink in situ PLA; fluorescence microscopy.

These are yes or no findings as the source states them, for the method shown. In cells and extracts the contact can be indirect. Some results given as binding are weak or reduced against the parent protein; the word gives no strength. For part of these data: Sequences can lack the tags named with a protein.

As to “Flag-tagged TLR4 (from UniProt Q9QUK6 26-835) (receptor)”, the binding result (with Flag-tagged TLR4; in experiment [1]) was “binds” throughout.

Take “TLR4, endogenous in primary MZ B cells (from UniProt Q9QUK6 26-835) (receptor)”: the binding result in experiment [2] is “binds”.
